Measurements as given in the supplement of paper PMC3334620.
Over roughly 33,000 sequences, “E-score (-0.5 to 0.5)” has its median near -8e-05; the highest 2% begin near 0.23. Some of the results follow.

molecular target: T1, Nrg2 (UniProt P38082); test: PBM E-score (8-mer binding enrichment) (E-score (-0.5 to 0.5)); higher = stronger / more preferred TF binding; conditions: protein concentration: 100 nM; construct: GST-full length
T1 sequence: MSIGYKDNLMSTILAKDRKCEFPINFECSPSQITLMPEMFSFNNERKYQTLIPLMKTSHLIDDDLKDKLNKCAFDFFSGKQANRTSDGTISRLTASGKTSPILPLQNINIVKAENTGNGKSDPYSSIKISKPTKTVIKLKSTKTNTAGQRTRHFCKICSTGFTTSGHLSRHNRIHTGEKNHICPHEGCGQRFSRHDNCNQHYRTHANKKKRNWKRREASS
Outline: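 Yeast transcription factors, full-length or as DNA-binding domains, were expressed with a GST tag using PURExpress in vitro transcription/translation. At about 100-200 nM they were applied to universal all-10-mer Agilent arrays, double-stranded by primer extension on fresh or once-stripped slides. Fluorescent anti-GST detected bound protein, and masliner normalised the scans. E-scores for ungapped eight-base words, pooled with reverse complements, came from the Universal PBM Analysis Suite.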

| Sequence | PBM E-score |
| --- | --- |
| ATCTCTCA | 0.236 |
| TAAGTGTA | -0.108 |
| CTCCCAGC | -0.0587 |
| CCTTTATC | -0.231 |
| TAAGGATA | 0.0535 |
| ATTATTCA | 0.23 |
| CATTTTGA | 0.0224 |
| CGCTTAAA | 0.152 |
| CGACCCCG | -0.186 |
| AGACTACG | -0.254 |
| AAATATAG | 0.0725 |
| GCATACAC | 0.0177 |
| GAGGCTCA | -0.234 |
| CAGTGTAC | -0.0892 |
| TAACAATA | 0.132 |
| ACGGCCAC | -0.0448 |
| ATGGTTGA | 0.0416 |
| CACAACTA | 0.175 |
| CTCACAAA | 0.164 |
| AATTCAGG | 0.336 |
| CGCGTGGC | -0.123 |
| GGTGCTAA | -0.0231 |
| AATCAATG | 0.137 |
| AATCTACG | -0.0979 |
| GTGTGAGA | 0.0143 |

| Sequence | PBM E-score |
| --- | --- |
| AATGTTAG | 0.0134 |
| CACAAGCG | -0.0112 |
| GCTCCTGA | -0.071 |
| GAGAGAAC | -0.0345 |
| CGCAGGGC | -0.0166 |
| ACTGGAAT | 0.0506 |
| TATCTTCA | 0.0863 |
| CGGAATAG | -0.0394 |
| CGGTTGCC | -0.0269 |
| ATACTAAT | 0.0959 |
| GAAGGGTA | 0.0766 |
| GCATTGGA | -0.172 |
| GCCATGCC | -0.00679 |
| CATAATAC | 0.101 |
| TCAAAGAA | -0.123 |
| ATTCTAGC | -0.122 |
| CAGATATG | 0.159 |
| GTGGGTTA | -0.0279 |
| AGGCTCAC | -0.221 |
| CACTTAAA | -0.063 |
| AGCATTTC | 0.071 |
| GACCCCCC | -0.31 |
| ATACTTCG | 0.0594 |
| CTTCGGAA | 0.18 |
| TAAAAGCA | -0.146 |

4 successive records already listed, for reference:

| Sequence | PBM E-score |
| --- | --- |
| AGCATTTC | 0.071 |
| GACCCCCC | -0.31 |
| ATACTTCG | 0.0594 |
| CTTCGGAA | 0.18 |

(further entries)

| Sequence | PBM E-score |
| --- | --- |
| AGGCCACC | -0.0409 |
| TCTTGGAA | 0.0146 |
| AGAATAAT | 0.173 |
| GATCTTGA | 0.142 |
| CCAACAAC | 0.0219 |
| AAGCGCCG | 0.0527 |
| GGACGAAA | 0.0751 |
| CCTCTACA | -0.167 |
| AAAGTTGA | -0.0544 |
| ATGTTTGG | -0.00581 |
| ACGGCTGA | -0.0425 |
| AATCCTCC | -0.123 |
| CCTTCTTC | -0.147 |
| AGCGACAC | -0.0693 |
| AACTGTCG | 0.0422 |
| CTATCTCC | 0.0511 |
| AGCCGACA | -0.00533 |
| TGAACGCA | 0.0815 |
| CGGTGATC | -0.118 |
| AATCTTCG | 0.119 |
| ATAAGCAT | -0.179 |
| CAAGATAC | 0.0461 |
| CAGGTGGG | -0.0155 |
| ATGGAAGA | -0.0192 |
| ATGTATAA | 0.0366 |

| Sequence | PBM E-score |
| --- | --- |
| AAGCGATG | 0.00253 |
| GAAAACAA | 0.1 |
| TGGGCCAA | 0.0492 |
| GGAGATTA | -0.00287 |
| CATTACGC | 0.089 |
| ATGTGGGC | -0.0014 |
| CACAGCTA | -0.0289 |
| ACGGACGG | -0.231 |
| CGATAGGA | -0.176 |
| GCTCCAGA | -0.117 |
| AATCCCAC | -0.0105 |
| CGTCGCCC | -0.282 |
| CCCCAGCC | -0.0514 |
| CTTAACTA | 0.0617 |
| ATCTTAAG | 0.173 |
| CTAGTGAG | 0.0153 |
| CGTCTGAC | 0.0122 |
| CAGGTGGA | -0.22 |
| TGTAACAA | 0.0452 |
| ATTCTCAG | 0.0383 |
| AACGCCCC | 0.155 |
| ATCAGAAA | -0.042 |
| ACTTTCAT | 0.0252 |
| AATAGGGC | 0.0062 |
| CTGCGATC | 0.0398 |

Five records picked at random from those above, as already listed:

| Sequence | PBM E-score |
| --- | --- |
| ATCTTAAG | 0.173 |
| ATTCTCAG | 0.0383 |
| CATTACGC | 0.089 |
| CGTCTGAC | 0.0122 |
| CTTAACTA | 0.0617 |

Carrying on:

| Sequence | PBM E-score |
| --- | --- |
| AGCTGAGC | 0.00072 |
| AAAGGCAT | 0.0311 |
| AATCCTTG | 0.136 |
| GGAGGCGA | -0.117 |
| CCTCATTA | 0.172 |
| ATTTGCTG | 0.125 |
| TCGCCAAA | 0.0791 |
| AGTTCTCG | 0.212 |
| AATATCAC | 0.0849 |
| AAGTCAAC | 0.0663 |
| CAGCGACC | -0.128 |
| ATACTTCA | 0.0101 |
| CAATAAGA | 0.0926 |
| ATCCCCGA | -0.0511 |
| ACGGCTCT | -0.0838 |
| ATCTTAAA | -0.0124 |
| CCTTGCTA | 0.133 |
| GAGCCCCC | -0.394 |
| CAAGCGGA | -0.141 |
| ATACAATG | 0.0698 |
| GGGGCACC | -0.228 |
| AACATGGC | -0.0158 |
| AATGGGAA | -0.2 |
| AAGAAGAT | 0.0205 |
| CGGTGAAA | 0.0878 |

| Sequence | PBM E-score |
| --- | --- |
| AAAGTAAA | 0.0731 |
| ATTGCATC | 0.032 |
| AGAAAGTG | 0.0147 |
| ATGAGTAA | 0.0697 |
| CTTTTCCC | -0.0167 |
| ATCACAAC | 0.017 |
| GTACATAC | 0.0406 |
| AGAGCCTA | -0.301 |
| AGCGCCGA | -0.137 |
| TCTGCAAA | -0.0511 |
| AACACGTT | -0.00172 |
| GCAATAGA | -0.0937 |
| ATGCTATA | -0.057 |
| AAGAAATA | 0.0598 |
| CTCCTTTA | -0.229 |
| GCTCCACA | -0.234 |
| GAAAAAGC | -0.0562 |
| CAACTGAC | -0.115 |
| ACGAAAAG | 0.0254 |
| ACAGTTAG | 0.0903 |
| AGAGTGTG | -0.0801 |
| GACTCGTA | -0.00023 |
| ACACATAG | -0.0551 |
| CAATCCAG | 0.0569 |
| CTTTACGC | -0.0944 |

| Sequence | PBM E-score |
| --- | --- |
| CACTATGG | -0.147 |
| CAAAGCGG | -0.0751 |
| AGCGTCAT | -0.0515 |
| CGCAACTA | 0.244 |
| CCGTTCCA | 0.0247 |
| TCTGACAA | -0.0261 |
| AGCTATTA | 0.0847 |
| GAAGGCGC | -0.135 |
| ATAATTCA | 0.125 |
| GAGCCTAA | -0.0883 |
| TGCCGTAA | -0.0345 |
| CAAGAACC | 0.172 |
| CGTTAACG | 0.0171 |
| AAAGACCG | -0.166 |
| CCGACCTA | 0.0717 |
| GAAACTGA | -0.118 |
| GCACTCCC | -0.0513 |
| ATCGAGAT | 0.138 |
| TCGGTCAA | 0.0158 |
| CGTCGCTA | 0.149 |
| CGCCTTGA | -0.0683 |
| CTCCCCGA | -0.197 |
